The list does not hold the whole screen: it is rich in T/C values a quarter to a half above the control, in often repeated tests (any T/C) and in doses without a T/C. Other doses and runs of a compound stand elsewhere. T/C is the treated group as % of the vehicle group. Some doses have a count of surviving animals in place of a T/C: the source files T/C as zero there, which appears to mark a toxic dose or a test without result, not a measured value. Some doses without a T/C left all or most animals alive at the check, yet need not have been tolerated: survival well below the control is almost never listed, so the zero probably covers shortened survival too. Counts of survivors are from the toxicity check (mostly the fifth day) where no day follows; animals may have died later. Schedule codes are those of the source, taken here to give the interval after Q, in days (D) or hours (H), and the number of doses after X. Some doses were run more than once; the values are given in rising order. Where survival is the endpoint, the PubChem record calls one and a half times the control and up active, and a quarter to a half above the control has no call in these data; cut-offs in other NCI protocols can differ. Some T/C values carry the count of animals alive at the toxicity check (mostly the fifth day); without a count, all were alive then.

Results on 25 compounds are retold here after PubChem BioAssay AID248 (DTP/NCI, 2004).

The assay deals with L1210 leukemia ip in BDF1 mice, survival T/C. The experiment in a line: NCI In Vivo Anticancer Drug Screen. Data for tumor model L1210 Leukemia (intraperitoneal) in B6D2F1 (BDF1) mice. As to conditions: higher T/C = longer survival.
Where [1] appears, read: T/C endpoint: mean survival time, dose: 100.0 mg/kg/injection, schedule: Q01DX009 (ip), vehicle: Klucel (hydroxypropylcellulose) (HPC).
Where [2] appears, read: T/C endpoint: mean survival time, dose: 200.0 mg/kg/injection, schedule: Q01DX009 (ip), vehicle: Klucel (hydroxypropylcellulose) (HPC).
Where [3] appears, read: T/C endpoint: mean survival time, dose: 400.0 mg/kg/injection, schedule: Q01DX009 (ip), vehicle: Klucel (hydroxypropylcellulose) (HPC).
Where [4] appears, read: T/C endpoint: mean survival time, dose: 100.0 mg/kg/injection, schedule: Q01DX001 (ip), vehicle: carboxymethylcellulose (CMC).
Where [5] appears, read: T/C endpoint: mean survival time, dose: 200.0 mg/kg/injection, schedule: Q01DX001 (ip), vehicle: carboxymethylcellulose (CMC).
Setting [6] is: T/C endpoint: mean survival time, dose: 400.0 mg/kg/injection, schedule: Q01DX001 (ip), vehicle: carboxymethylcellulose (CMC).
[7] abbreviates: T/C endpoint: mean survival time, dose: 200.0 mg/kg/injection, schedule: Q01DX009 (ip), vehicle: saline with Tween-80.
Where [8] appears, read: T/C endpoint: mean survival time, dose: 400.0 mg/kg/injection, schedule: Q01DX009 (ip), vehicle: saline with Tween-80.
Setting [9] is: T/C endpoint: mean survival time, dose: 400.0 mg/kg/injection, schedule: Q04DX002 (ip), vehicle: Klucel (hydroxypropylcellulose) (HPC).
[10] abbreviates: T/C endpoint: mean survival time, dose: 200.0 mg/kg/injection, schedule: Q01DX001 (ip), vehicle: Klucel (hydroxypropylcellulose) (HPC).
The mark [11] stands for this setting: T/C endpoint: mean survival time, dose: 400.0 mg/kg/injection, schedule: Q01DX001 (ip), vehicle: Klucel (hydroxypropylcellulose) (HPC).
Setting [12] is: T/C endpoint: mean survival time, dose: 50.0 mg/kg/injection, schedule: Q01DX001 (ip), vehicle: carboxymethylcellulose (CMC).

As to `CCN1CCC(CN2c3ccccc3Sc3ccccc32)C1` (configuration not stated), the survivor count (T/C endpoint: mean survival time, dose: 100.0 mg/kg/injection, schedule: Q01DX009 (ip), vehicle: saline) is listed as 0 of 6; the survivor count (T/C endpoint: mean survival time, dose: 200.0 mg/kg/injection, schedule: Q01DX001 (ip), vehicle: saline) was 0 of 6; the survivor count (T/C endpoint: mean survival time, dose: 400.0 mg/kg/injection, schedule: Q01DX001 (ip), vehicle: saline) is 0 of 6.
For `CCOC(=O)CC1C(C)C(C)NC(C)C1C` (configuration not stated), the survivor count (T/C endpoint: mean survival time, dose: 300.0 mg/kg/injection, schedule: Q01DX001 (ip), vehicle: saline) was 2 of 6.
Turning to `O=C1C=C[C@H](O)[C@@]2(CO)O[C@@H]12`, the survivor count (T/C endpoint: median survival time, dose: 20.0 mg/kg/injection, schedule: Q01DX009 (ip), vehicle: saline with Tween-80) was 3 of 6.
With `c1ccc(C2C(c3ccccc3)N2CCNC2=NCCN2)cc1` (configuration not stated), the survivor count is, setting by setting: under setting [1], 3 of 6; under setting [2], 0 of 6; under setting [3], 0 of 6.
`CNCC(OC)c1ccc(O)c(O)c1` (configuration not stated): the T/C (T/C endpoint: mean survival time, dose: 400.0 mg/kg/injection, schedule: Q01DX009 (ip), vehicle: saline) was 128 % of control.
In the case of `Cc1ccc(NC(=O)N(CCO)N=O)cc1`, the survivor count by setting is: under setting [4], 2 of 4; (T/C endpoint: mean survival time, dose: 118.0 mg/kg/injection, schedule: Q01DX001 (ip), vehicle: carboxymethylcellulose (CMC)) 0 of 4; (T/C endpoint: mean survival time, dose: 178.0 mg/kg/injection, schedule: Q01DX001 (ip), vehicle: carboxymethylcellulose (CMC)) 0 of 4 and 1 of 4; (T/C endpoint: mean survival time, dose: 267.0 mg/kg/injection, schedule: Q01DX001 (ip), vehicle: carboxymethylcellulose (CMC)) 0 of 4 and 2 of 4; under setting [6], 0 of 4; (T/C endpoint: mean survival time, dose: 600.0 mg/kg/injection, schedule: Q01DX001 (ip), vehicle: carboxymethylcellulose (CMC)) 0 of 4. Further, the T/C under setting [5] is 125 % of control [3 of 4 alive] and the T/C under setting [6] was 125 % of control [3 of 4 alive].
Turning to `CCC1(N)COC(c2ccccc2)OC1` (configuration not stated), the survivor count under setting [2] is reported as 0 of 6.
`Cc1ccc(-c2ccns2)cc1`: the survivor count runs as follows: under setting [4], 6 of 6; under setting [5], 6 of 6.
With `O=C(NC(=S)Nc1ccc(Cl)cc1)c1ccccc1`, the survivor count under setting [2] is listed as 6 of 6 and the survivor count under setting [3] was 0 of 6.
Turning to `CCCCOc1ccc(Nc2c3ccccc3nc3ccccc23)cc1`, the survivor count reads like this: (T/C endpoint: mean survival time, dose: 200.0 mg/kg/injection, schedule: Q04DX003 (ip), vehicle: Klucel (hydroxypropylcellulose) (HPC)) 1 of 6; (T/C endpoint: mean survival time, dose: 400.0 mg/kg/injection, schedule: Q04DX003 (ip), vehicle: Klucel (hydroxypropylcellulose) (HPC)) 1 of 6.
Turning to `CCOC(=O)C(CC)(OC(C)=O)C(=O)CBr` (configuration not stated), the survivor count reads like this: (T/C endpoint: mean survival time, dose: 150.0 mg/kg/injection, schedule: Q01DX001 (ip), vehicle: acetone) 0 of 6; (T/C endpoint: mean survival time, dose: 300.0 mg/kg/injection, schedule: Q01DX001 (ip), vehicle: acetone) 0 of 6.
On to `CN(C)C(=O)NN`, for which the survivor count under setting [7] is 0 of 6 and the survivor count under setting [8] was 0 of 6.
With `COc1cc([N+](=O)[O-])cc2c1OC1(C=C2)N(C)c2ccccc2C1(C)C` (configuration not stated), the survivor count (T/C endpoint: mean survival time, dose: 100.0 mg/kg/injection, schedule: Q04DX002 (ip), vehicle: gum acacia) is 3 of 3.
For the compound `CCCCCCCCCCCCCC(=O)N(CCC)CCC`, where the note is “T/C endpoint: mean survival time, dose: 400.0 mg/kg/injection, schedule: Q01DX009 (ip), vehicle: carboxymethylcellulose (CMC)”, the survivor count is 5 of 6 and 3 of 3.
With `O=C(Nc1ccc([N+](=O)[O-])cc1)OCC(COc1ccccc1)OC(=O)Nc1ccc([N+](=O)[O-])cc1` (configuration not stated), under “T/C endpoint: mean survival time, dose: 50.0 mg/kg/injection, schedule: Q01DX001 (ip), vehicle: other”, the survivor count is reported as 4 of 4.
As to `Cc1ccc(CNC2=C(Cl)C(=O)c3ccccc3C2=O)cc1C`, the survivor count is recorded as 0 of 3 (T/C endpoint: mean survival time, dose: 50.0 mg/kg/injection, schedule: Q04DX002 (ip), vehicle: Klucel (hydroxypropylcellulose) (HPC)); 0 of 3 (T/C endpoint: mean survival time, dose: 100.0 mg/kg/injection, schedule: Q04DX002 (ip), vehicle: Klucel (hydroxypropylcellulose) (HPC)); 0 of 3 (T/C endpoint: mean survival time, dose: 200.0 mg/kg/injection, schedule: Q04DX002 (ip), vehicle: Klucel (hydroxypropylcellulose) (HPC)); 0 of 3 under setting [9].
Turning to `CSc1ccc(NC(=O)Nc2ccc(F)cc2)cc1`, under setting [3], the survivor count is 0 of 6.
On to `O=C(O)C1CC1(Br)Br` (configuration not stated), for which the survivor count (T/C endpoint: mean survival time, dose: 200.0 mg/kg/injection, schedule: Q04DX003 (ip), vehicle: acetone) was 0 of 6 and the survivor count (T/C endpoint: mean survival time, dose: 400.0 mg/kg/injection, schedule: Q04DX003 (ip), vehicle: acetone) was 0 of 6.
Turning to `CC(C)OC1=C2CCCCC2=[N+]2CCc3ccccc3C2C1` (configuration not stated), the survivor count is, setting by setting: (T/C endpoint: mean survival time, dose: 100.0 mg/kg/injection, schedule: Q01DX001 (ip), vehicle: Klucel (hydroxypropylcellulose) (HPC)) 0 of 6; under setting [10], 1 of 6; under setting [11], 0 of 6.
Turning to `CC(C)(C)O[Si](C)(C)CCl`, under setting [12], the survivor count is reported as 0 of 4.
For `c1ccc2c(OCC3=NCCN3)cccc2c1`, the survivor count reads like this: under setting [1], 2 of 6; under setting [10], 0 of 6; under setting [11], 0 of 6.
For `COc1cc(N(CCCl)CCCl)c(OC)cc1C=Nc1ccc(-c2nc(Cc3ccccc3)sc2C)cc1`, the T/C (T/C endpoint: mean survival time, dose: 13.0 mg/kg/injection, schedule: Q01DX009 (ip), vehicle: other) is 131 % of control; the T/C (T/C endpoint: mean survival time, dose: 20.0 mg/kg/injection, schedule: Q01DX009 (ip), vehicle: other) was 138 % of control; the T/C (T/C endpoint: mean survival time, dose: 30.0 mg/kg/injection, schedule: Q01DX009 (ip), vehicle: other) was 143 % of control; the T/C (T/C endpoint: mean survival time, dose: 44.0 mg/kg/injection, schedule: Q01DX009 (ip), vehicle: carboxymethylcellulose (CMC)) was 127 % of control; the T/C under setting [12] is 129 % of control; the T/C (T/C endpoint: mean survival time, dose: 66.0 mg/kg/injection, schedule: Q01DX001 (ip), vehicle: carboxymethylcellulose (CMC)) was 128 % of control. The T/C is 132 % of control [4 of 6 alive] (T/C endpoint: mean survival time, dose: 66.0 mg/kg/injection, schedule: Q01DX009 (ip), vehicle: other); 141 % of control (T/C endpoint: mean survival time, dose: 75.0 mg/kg/injection, schedule: Q01DX001 (ip), vehicle: carboxymethylcellulose (CMC)); 130 % of control under setting [4]; 142 % of control (T/C endpoint: mean survival time, dose: 150.0 mg/kg/injection, schedule: Q01DX001 (ip), vehicle: carboxymethylcellulose (CMC)). The survivor count is listed as 3 of 6 (T/C endpoint: mean survival time, dose: 150.0 mg/kg/injection, schedule: Q01DX009 (ip), vehicle: carboxymethylcellulose (CMC)) and 3 of 6 (T/C endpoint: mean survival time, dose: 300.0 mg/kg/injection, schedule: Q01DX001 (ip), vehicle: carboxymethylcellulose (CMC)).
For `CC(C)=CCC/C(C)=C/CC/C(C)=C/CC(CCN(C)C)C(=O)OC/C=C(\C)CCC=C(C)C` (configuration not stated), the survivor count was 0 of 6 (T/C endpoint: mean survival time, dose: 100.0 mg/kg/injection, schedule: Q01DX009 (ip), vehicle: saline with Tween-80); 3 of 6 under setting [7]; 5 of 6 under setting [8].
Take `COCCCNC(=S)C(=S)NCCCOC`: the survivor count under setting [9] is 1 of 3.
In the case of `CCCC1OC(=O)C(C)O1` (configuration not stated), the survivor count under setting [3] is 5 of 6.
